Laboratory results as given in publication PMC12344264, “Mechanistic, in-silico and in vitro studies with nitrofurans reveal potent leishmanicidal activity and inhibition of trypanothione reductase” (International Journal for Parasitology: Drugs and Drug …, 2025).

Assays:
[1] = test system: HepG2 cells; test: Cytotoxicity, alamarBlue, 72 h; assay type: cell-based, human; settings: CC50/EC50 between axenic amastigotes and HepG2 cells
Description: (§1) For cytotoxicity tests, several mammalian cell lines were used. […] Primary cell cultures were also used to evaluate cytotoxicity. […] BMDM cells were differentiated for one week with 30 % […] from L929 cell line.
(§2) The in vitro cytotoxicity of the selected nitrofurans was evaluated in HepG2, RAW 264.7 cells, splenocytes and BMDM. In each well of a 96-well microtitre plate, 100 μL containing 10,000 HepG2 or RAW 264.7 cells were incubated for 24h at 37 °C and 5 % CO2 to allow the cells to settle. For primary cells, 100 μL containing 100,000 BMDM or 1,000,000 splenocytes were added to each well. Subsequently, […] of one-half serial dilutions of each compound diluted in DMEM (for HepG2 cells), RPMI medium (for RAW cells), splenocyte medium (for splenocytes) or BMDM medium supplemented with 10 % GM-CSF (for BMDM), were added to each well. The cytotoxic effect of the compounds was measured after 72 h of incubation at 37 °C and 5 % CO2. For this purpose, a 10 % (v/v) of the alamarBlue™ cell viability reagent (Invitrogen, Fisher Scientific International Inc., Pittsburgh, PA, USA) was added, and the reaction was incubated for 4 h at 37 °C and 5 % CO2. Fluorescence was measured using a Varioskan Lux spectrophotometer (ThermoFisher Scientific, Waltham, MA, USA). Positive controls consisting of 0.1 % (v/v) H2O2, and negative controls, consisting of 0.1 % (v/v) DMSO, were also included on each plate.
(§3) All experiments were carried out in triplicate and included at least three technical replicates. […] The SI was calculated from the CC50/EC50 ratio.

[2] = test system: RAW 264.7 cells; test: Cytotoxicity, alamarBlue, 72 h; assay type: cell-based, murine; settings: CC50/EC50 between axenic amastigotes and RAW 264.7 cells
Description: as §1, §2, §3

[3] = test system: Splenocytes; test: Cytotoxicity in primary splenocytes, alamarBlue, 72 h; assay type: cell-based, mouse; settings: CC50/EC50 between intramacrophage amastigotes and splenocytes
Description: as §1, §2, §3

[4] = test system: BMDM; test: Cytotoxicity in bone marrow-differentiated macrophages, alamarBlue, 72 h; assay type: cell-based, mouse; settings: CC50/EC50 between intramacrophage amastigotes and BMDM
Description: as §1, §2, §3

## CC(=O)OC(OC(C)=O)c1ccc([N+](=O)[O-])o1 [5-nitro-2-furaldehide diacetate, 5-Nitro-2-furaldehyde diacetate]
[1]
  SI1: 6.92
[2]
  SI2: 4.49
[3]
  SI1: 2.40
[4]
  SI2: 2.59

## N#Cc1ccc([N+](=O)[O-])o1 [5-nitro-2-furonitrile, 5-Nitro-2-furonitrile]
[1]
  SI1: 30.99
[2]
  SI2: 44.59
[3]
  SI1: 5.86
[4]
  SI2: 17.81

## CC1CS(=O)(=O)CCN1/N=C/c1ccc([N+](=O)[O-])o1 (centres unmarked) [Nifurtimox]
[1]
  SI1: 21.44
[2]
  SI2: 12.76
[3]
  SI1: 37.80
[4]
  SI2: 60.22

## O=C1CN(/N=C/c2ccc([N+](=O)[O-])o2)C(=O)N1 [Nitrofurantoin]
[1]
  SI1: 21.95
[2]
  SI2: 25.48
[3]
  SI1: 15.80
[4]
  SI2: 26.81

## NC(=O)N/N=C/c1ccc([N+](=O)[O-])o1 [Nitrofurazone]
[1]
  SI1: 133.67
[1]; listed as nitrofurazone
  SI1: 133.7
[2]
  SI2: 80.84
[3]
  SI1: 79.43
[4]
  SI2: 82.76

## O=C1NN(c2ccc(F)c(Cl)c2)C(=O)C1=Cc1ccc([N+](=O)[O-])o1 [PYZD-4409, 1-(3-chloro-4-fluorophenyl)-4-[(5-nitro-2-furyl)methylene]-3,5-pyrazolidinedione]
[1]
  SI1: 12.81
[2]
  SI2: 40.73
